Experimental data: patent publication US20210079358A1, “ASSEMBLOID - 3D MIMETIC TISSUE STRUCTURE BASED ON PATIENT- DERIVED MULTIPLE CELL TYPES AND METHOD OF MANUFACTURING THE SAME” (POSTECH Research and Business Development Foundation, priority 2019, published 2021)
For at least one compound, name, drawing or mass did not settle the structure.

Key:
[1] = tested on: 3D bioprinted patient-derived bladder tumor organoids; assay: Tumor growth of 3D bioprinted patient-derived bladder tumor organoids treated with SAG or FK506; assay type: cell-based, human; details: regardless of tumor stroma
[2] = tested on: patient-derived bladder tumor organoids; assay: Growth of patient-derived bladder tumor organoids with or without tumor stroma treated with Hh or Bmp agonist; assay type: cell-based, human; details: 5 μM FK506, 7 days
[3] = tested on: BBN-induced mouse bladder tumor organoids; assay: Growth of BBN-induced mouse bladder tumor organoids treated with SAG or FK506; assay type: cell-based; details: regardless of the presence of stroma

Structure (SMILES): C=CC[C@@H]1/C=C(\C)C[C@H](C)C[C@H](OC)[C@H]2O[C@@](O)(C(=O)C(=O)N3CCCC[C@H]3C(=O)O[C@H](/C(C)=C/[C@@H]3CC[C@@H](O)[C@H](OC)C3)[C@H](C)[C@@H](O)CC1=O)[C@H](C)C[C@@H]2OC [FK506]
- response of bioprinted basal tumor organoids ([1]; bioprinted basal): respond
- tumor growth ([1]; bioprinted, luminal P-1 tumor): does not exhibit a significant change
- growth of basal tumor organoids ([2]; basal P-2 and P-3, regardless of the presence of tumor stroma): dramatically reduced
- response of luminal tumor organoids ([2]; luminal P-1 and P-6, with or without tumor stroma): did not respond
- growth of tumor organoids [3]: reduced
